{"source": "paper PMC4182748", "molecules": {"B1": {"name": "Mxβ19–148 (unlabeled protein) (domain or fragment, UniProt Q1D7U3 19-148)", "chain": "AKIIDIPNLINIQKQSYEKFLQADIAADKREDLGLQGVFKSVFPIRDFNETSSLEFVSYHLERPKYDVDECHQRGMTYSAPIKVVVRLVVWDKDEETGAQSIRDVKEQEVYFGEIPLMTQNGTFIINGTE"}}, "key": {"[1]": {"target": "T1, Mxβ19–148 (BACTH fusion) (Myxococcus xanthus) (UniProt Q1D7U3)", "T1 sequence": "B1 chain", "test": "two-hybrid; bacterial two-hybrid (BACTH) in E. coli BTH101 (cya-); T25 (pKT25) and T18 (pUT18 or pUT18C) fusions; reporter lacZ read on X-Gal plates and as β-galactosidase activity of liquid cultures; one empty vector as negative control"}, "[2]": {"target": "T2, Mxβ19–537 (Myxococcus xanthus) (UniProt Q1D7U3)", "T2 sequence": "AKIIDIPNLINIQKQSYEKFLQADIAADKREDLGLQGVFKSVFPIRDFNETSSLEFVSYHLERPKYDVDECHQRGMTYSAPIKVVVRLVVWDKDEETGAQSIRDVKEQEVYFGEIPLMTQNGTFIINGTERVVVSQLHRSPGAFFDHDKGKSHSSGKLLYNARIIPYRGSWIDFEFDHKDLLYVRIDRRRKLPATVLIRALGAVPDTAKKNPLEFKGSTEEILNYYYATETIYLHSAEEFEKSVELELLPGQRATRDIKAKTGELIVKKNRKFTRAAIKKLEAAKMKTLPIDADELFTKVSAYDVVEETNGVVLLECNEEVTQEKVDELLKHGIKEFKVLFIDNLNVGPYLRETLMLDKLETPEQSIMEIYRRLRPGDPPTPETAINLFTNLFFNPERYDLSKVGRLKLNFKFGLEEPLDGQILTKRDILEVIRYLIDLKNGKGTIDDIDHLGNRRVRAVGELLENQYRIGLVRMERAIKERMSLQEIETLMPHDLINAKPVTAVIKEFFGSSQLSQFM", "test": "two-hybrid; bacterial two-hybrid (BACTH) in E. coli BTH101 (cya-); T25 (pKT25) and T18 (pUT18 or pUT18C) fusions; reporter lacZ read on X-Gal plates and as β-galactosidase activity of liquid cultures; one empty vector as negative control"}, "[3]": {"target": "T3, Bbβ31–538 (Bdellovibrio bacteriovorus) (UniProt Q6MJ09)", "T3 sequence": "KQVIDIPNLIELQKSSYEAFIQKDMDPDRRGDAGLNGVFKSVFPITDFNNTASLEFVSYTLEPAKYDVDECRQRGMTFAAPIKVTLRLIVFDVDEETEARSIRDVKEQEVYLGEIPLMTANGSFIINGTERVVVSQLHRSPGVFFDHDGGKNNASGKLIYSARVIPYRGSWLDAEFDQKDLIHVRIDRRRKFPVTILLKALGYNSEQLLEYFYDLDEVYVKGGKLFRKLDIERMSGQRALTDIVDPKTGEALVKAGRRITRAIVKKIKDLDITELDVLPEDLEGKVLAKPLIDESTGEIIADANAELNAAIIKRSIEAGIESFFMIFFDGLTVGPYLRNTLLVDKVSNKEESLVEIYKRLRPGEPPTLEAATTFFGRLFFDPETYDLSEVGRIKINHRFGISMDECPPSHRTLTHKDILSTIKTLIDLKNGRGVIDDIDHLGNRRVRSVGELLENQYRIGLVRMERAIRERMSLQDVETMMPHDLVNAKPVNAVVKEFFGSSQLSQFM", "test": "two-hybrid; bacterial two-hybrid (BACTH) in E. coli BTH101 (cya-); T25 (pKT25) and T18 (pUT18 or pUT18C) fusions; reporter lacZ read on X-Gal plates and as β-galactosidase activity of liquid cultures; one empty vector as negative control"}, "[4]": {"target": "T4, Mxβ19–148 D122A (BACTH fusion) (Myxococcus xanthus) (UniProt Q1D7U3)", "T4 sequence": "B1 chain with D104A", "test": "two-hybrid; bacterial two-hybrid (BACTH) in E. coli BTH101 (cya-); T25 (pKT25) and T18 (pUT18 or pUT18C) fusions; reporter lacZ read on X-Gal plates and as β-galactosidase activity of liquid cultures; one empty vector as negative control"}, "[5]": {"target": "T5, Mxβ19–148 K124A (BACTH fusion) (Myxococcus xanthus) (UniProt Q1D7U3)", "T5 sequence": "B1 chain with K106A", "test": "two-hybrid; bacterial two-hybrid (BACTH) in E. coli BTH101 (cya-); T25 (pKT25) and T18 (pUT18 or pUT18C) fusions; reporter lacZ read on X-Gal plates and as β-galactosidase activity of liquid cultures; one empty vector as negative control"}, "[6]": {"target": "CdnL (purified) (Myxococcus xanthus)", "test": "NMR titration; [1H-15N] or [1H-13C] HSQC at 25°C after each addition of unlabeled Mxβ19–148 (0.4–5.0 equivalents) to 0.10–0.25 mM [15N,13C] CdnL, CdnLNt or CdnLCt; both purified"}}, "note": "Positions count from the first letter of the chain named. These are yes or no findings as the source states them, for the method shown. For some assays here: Binding calls can cover weak binding; strength is not graded here. For some assays here: Where a sequence is shown, tags or fusion partners need not be part of it.", "data": [{"molecule": "CdnL M96A (BACTH fusion) (Myxococcus xanthus)", "values": [{"measurement": "binding", "setting": "[1]", "result": "binds"}]}, {"molecule": "CdnL R128A/K129A (BACTH fusion) (Myxococcus xanthus)", "values": [{"measurement": "binding", "setting": "[1]", "result": "binds"}]}, {"molecule": "CdnL W88A (BACTH fusion) (Myxococcus xanthus)", "values": [{"measurement": "binding", "setting": "[1]", "result": "binds"}]}, {"molecule": "CgCdnL (Corynebacterium glutamicum)", "values": [{"measurement": "binding", "setting": "[2]", "result": "no binding"}]}, {"molecule": "BbCdnL (Bdellovibrio bacteriovorus)", "values": [{"measurement": "binding", "setting": "[3]", "result": "binds"}, {"measurement": "binding", "setting": "[2]", "result": "no binding"}]}, {"molecule": "TtCdnL (T. thermophilus)", "values": [{"measurement": "binding", "setting": "[2]", "result": "no binding"}]}, {"molecule": "ScCdnL (Streptomyces coelicolor)", "values": [{"measurement": "binding", "setting": "[2]", "result": "no binding"}]}, {"molecule": "CdnL (BACTH fusion) (Myxococcus xanthus)", "values": [{"measurement": "binding", "setting": "[1]", "result": "binds"}, {"measurement": "binding", "setting": "[4]", "result": "binds"}, {"measurement": "binding", "setting": "[5]", "result": "binds"}]}, {"molecule": "CdnL R90A/R91A/R93A (BACTH fusion) (Myxococcus xanthus)", "values": [{"measurement": "binding", "setting": "[1]", "result": "binds"}]}, {"molecule": "CdnL F125A (BACTH fusion) (Myxococcus xanthus)", "values": [{"measurement": "binding", "setting": "[1]", "result": "binds"}]}, {"molecule": "B1", "values": [{"measurement": "binding", "setting": "[6]", "result": "binds"}]}]}
